A weaker result is weaker than the reference pair of the same experiment. Protein sequences can lack the tags named with them.

The target of the data set is T1, SNF RRM2 (Drosophila melanogaster) (UniProt P43332).
T1 sequence (looked up): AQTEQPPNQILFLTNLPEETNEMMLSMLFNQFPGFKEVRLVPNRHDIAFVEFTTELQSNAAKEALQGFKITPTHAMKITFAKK
The data set is described as follows: NMR titration. Particulars: recombinant protein; residues 134-216.

In the case of UUUUUUUUAUUUUUUUUU [2U-run (NMR)], the binding result is reported as “binds more weakly”.
